Laboratory results as given in publication PMC5109591.
No constants are given. Whether binding was seen depends on the method and setting. Binding seen in cells or lysates may run through a third protein. Some results given as binding are weak or reduced against the parent protein; the word gives no strength. For some assays here: Where a sequence is shown, tags or fusion partners need not be part of it.

Amino acid sequences for entries named in this document (tags omitted).
UniProt P29350: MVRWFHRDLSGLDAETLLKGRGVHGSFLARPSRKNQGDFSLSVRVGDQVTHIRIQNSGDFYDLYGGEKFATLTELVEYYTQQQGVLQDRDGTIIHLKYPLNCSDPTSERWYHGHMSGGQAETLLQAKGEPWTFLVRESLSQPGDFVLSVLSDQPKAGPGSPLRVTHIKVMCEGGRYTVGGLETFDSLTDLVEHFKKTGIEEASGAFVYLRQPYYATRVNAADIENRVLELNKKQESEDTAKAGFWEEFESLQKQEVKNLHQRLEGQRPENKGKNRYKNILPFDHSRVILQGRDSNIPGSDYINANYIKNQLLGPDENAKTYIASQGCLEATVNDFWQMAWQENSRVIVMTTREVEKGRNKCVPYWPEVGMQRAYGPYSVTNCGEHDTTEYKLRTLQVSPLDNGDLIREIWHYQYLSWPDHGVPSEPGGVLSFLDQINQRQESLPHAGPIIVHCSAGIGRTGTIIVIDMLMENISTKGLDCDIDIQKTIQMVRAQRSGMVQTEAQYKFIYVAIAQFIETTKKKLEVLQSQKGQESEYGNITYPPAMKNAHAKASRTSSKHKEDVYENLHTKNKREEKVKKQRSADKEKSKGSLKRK

Assays:
[1] = biological target: c-Jun N-terminal kinase 2 (JNK2) (human (endogenous in NHEKs)) (UniProt P45984); test: co-IP; endogenous proteins; whole-cell extracts of NHEKs stimulated with 5 μg ml^-1 poly(I:C) and/or 30 nM REG3A; immunoprecipitation with anti-SHP-1 or anti-JNK2, protein A&G beads, immunoblot
[2] = biological target: Src homology region 2 domain-containing protein tyrosine phosphatase 1 (SHP-1) (human (endogenous in NHEKs)) (UniProt P29350); test: as above
[3] = biological target: T1, N-EXTL3 (1-548), Flag-tagged (UniProt O43909); test: co-IP; whole-cell extracts after transfection; Flag-tagged EXTL3 constructs and REG3A or C-REG3A; immunoprecipitation with anti-Flag or anti-REG3A overnight at 4 degree, protein A&G beads, immunoblot
T1 sequence: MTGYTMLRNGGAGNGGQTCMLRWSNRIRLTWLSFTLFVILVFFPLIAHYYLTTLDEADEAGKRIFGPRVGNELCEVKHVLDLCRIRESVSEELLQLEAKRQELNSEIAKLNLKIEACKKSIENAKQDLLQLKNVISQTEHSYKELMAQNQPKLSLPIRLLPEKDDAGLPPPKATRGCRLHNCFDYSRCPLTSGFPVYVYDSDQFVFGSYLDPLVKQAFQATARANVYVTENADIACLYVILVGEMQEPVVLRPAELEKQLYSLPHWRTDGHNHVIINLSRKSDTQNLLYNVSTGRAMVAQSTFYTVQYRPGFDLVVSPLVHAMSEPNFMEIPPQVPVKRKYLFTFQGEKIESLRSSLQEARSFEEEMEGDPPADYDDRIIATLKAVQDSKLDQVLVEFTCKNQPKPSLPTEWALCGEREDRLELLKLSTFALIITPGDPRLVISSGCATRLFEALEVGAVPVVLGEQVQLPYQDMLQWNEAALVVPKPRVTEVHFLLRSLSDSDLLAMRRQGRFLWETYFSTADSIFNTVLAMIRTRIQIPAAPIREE

[4] = biological target: T2, exostosin-like 3 (EXTL3), full-length, Flag-tagged (UniProt O43909); test: as above
T2 sequence: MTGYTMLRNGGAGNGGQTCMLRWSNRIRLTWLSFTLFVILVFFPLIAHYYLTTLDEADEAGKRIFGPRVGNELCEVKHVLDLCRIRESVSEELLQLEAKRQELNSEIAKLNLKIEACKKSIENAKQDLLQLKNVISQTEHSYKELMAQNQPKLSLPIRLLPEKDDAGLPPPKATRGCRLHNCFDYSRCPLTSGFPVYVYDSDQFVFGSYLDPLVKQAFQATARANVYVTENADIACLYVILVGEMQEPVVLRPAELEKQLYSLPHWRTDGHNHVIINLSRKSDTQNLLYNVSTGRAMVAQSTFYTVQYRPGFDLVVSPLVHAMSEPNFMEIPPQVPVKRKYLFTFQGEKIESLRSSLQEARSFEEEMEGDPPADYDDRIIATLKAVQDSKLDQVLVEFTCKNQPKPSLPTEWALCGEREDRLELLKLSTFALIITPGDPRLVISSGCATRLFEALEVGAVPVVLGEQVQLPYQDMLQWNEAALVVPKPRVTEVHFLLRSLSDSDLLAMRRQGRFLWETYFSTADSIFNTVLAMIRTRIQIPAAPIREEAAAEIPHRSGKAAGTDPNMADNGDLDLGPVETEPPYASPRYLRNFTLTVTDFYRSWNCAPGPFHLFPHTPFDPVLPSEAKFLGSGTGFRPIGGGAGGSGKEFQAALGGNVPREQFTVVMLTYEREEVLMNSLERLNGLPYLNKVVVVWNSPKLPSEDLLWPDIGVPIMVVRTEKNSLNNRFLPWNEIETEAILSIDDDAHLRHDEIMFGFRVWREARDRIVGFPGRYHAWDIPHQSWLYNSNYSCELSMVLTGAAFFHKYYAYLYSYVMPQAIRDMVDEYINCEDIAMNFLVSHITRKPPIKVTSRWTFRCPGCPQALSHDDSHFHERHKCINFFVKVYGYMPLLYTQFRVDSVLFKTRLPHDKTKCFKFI

Src homology region 2 domain-containing protein tyrosine phosphatase 1 (SHP-1) (from UniProt P29350 1-595) (enzyme)
binding [1]: binds

c-Jun N-terminal kinase 2 (JNK2) (from UniProt P45984 1-424) (enzyme)
binding [2]: binds

B1: regenerating islet-derived protein 3A (REG3A), full-length (protein, UniProt Q06141 27-175)
chain: EEPQRELPSARIRCPKGSKAYGSHCYALFLSPKSWTDADLACQKRPSGNLVSVLSGAEGSFVSSLVKSIGNSYSYVWIGLHDPTQGTEPNGEGWEWSSSDVMNYFAWERNPSTISSPGHCASLSRSTAFLRWKDYNCNVRLPYVCKFTD
binding [3]: binds
binding [4]: binds

B2: CTLD domain of REG3A (C-REG3A) (domain or fragment, UniProt Q06141 40-175)
chain: CPKGSKAYGSHCYALFLSPKSWTDADLACQKRPSGNLVSVLSGAEGSFVSSLVKSIGNSYSYVWIGLHDPTQGTEPNGEGWEWSSSDVMNYFAWERNPSTISSPGHCASLSRSTAFLRWKDYNCNVRLPYVCKFTD
binding [3]: binds
